{
  "source": "PubChem BioAssay AID504467",
  "about": "(National Center for Advancing Translational Sciences (NCATS), 2011)",
  "note": "In all, about 330,000 compounds went through this assay and about 7,700 (2.3%) were called active. The inconclusive results got no clear call from the source; some entries with a clear call stand among them for comparison. The call rests on the fitted dose curve; in most records, active means well fitted inhibition curve with a large enough effect; inconclusive means small, poorly fitted or top-dose-only effect, or effect the other way; inactive means flat fitted curve, though single readings scatter. Potencies beside an inconclusive call are fits to weak or partial responses and may not hold up. On the % scale 0 is the no-effect control and ±100 the full control effect; potency means the concentration at half of the fitted maximal effect.",
  "data": [
    {"experiment": "qHTS screen for small molecules that inhibit ELG1-dependent DNA repair in human embryonic kidney (HEK293T) cells expressing luciferase-tagged ELG1; further: nearly all actives have a fitted effect of over 55% in size", "details": "HEK293T ELG1-luciferase reporter, luminescence, 16 h, DNA damage induced by 5-fluorouridine; activity change, negative = inhibition: at 46.1 µM (top of the series)", "how_it_was_run": "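Quantitative HTS, concentration-response format. 2,000 cells/well co-treated with 5-fluorouridine and compound, 16 hr in 5% CO2 at 37 °C; ONE-Glo luminescence read after 30 min.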", "values": [
      {"smiles": "CCn1c(SCC(=O)Nc2cccc(OC)c2)nc2ccccc2c1=O", "Potency": "active: 23.1 µM"},
      {"smiles": "Cc1nc(-c2cccc(N)c2)cs1", "Potency": "inconclusive: 29.1 µM [activator, single point]"},
      {"smiles": "C/C(=N\\OC(=O)Nc1ccc(Cl)cc1)c1ncc(C(F)(F)F)cc1N1CCOCC1", "Potency": "inconclusive: 18.4 µM [activator, partial curve, poor fit]"},
      {"smiles": "CC(NS(=O)(=O)c1ccc(OCC(=O)N2CCOCC2)c(Cl)c1)c1ccccc1", "note": "(centres undefined)", "Potency": "active: 14.6 µM"},
      {"smiles": "CCN(Cc1ccncc1)Cc1nc(-c2ccc(C(=O)OC)cc2)no1", "activity change, negative = inhibition": "inactive: 6.04%"},
      {"smiles": "CCCc1nn(C)c(C(=O)Nc2ccc(Cl)cc2)c1Cl", "Potency": "inconclusive: 18.4 µM [activator, single point]"},
      {"smiles": "Cn1cccc1/C=C1\\CCC/C(=C\\c2cccn2C)C1=O", "Potency": "inconclusive: 2.59 µM [activator, full curve]"},
      {"smiles": "CN(Cc1ccccc1Br)C(=O)CN1C(=O)NC2(CCCCCC2)C1=O", "activity change, negative = inhibition": "inactive: 3.23%"},
      {"smiles": "Nc1nc2c(ncn2C2C[C@H](O)[C@@H](CO)O2)c(=O)[nH]1", "note": "(some centres undefined)", "activity change, negative = inhibition": "inactive: -13.6%"},
      {"smiles": "CCOC(=O)c1ccc(-c2ccc(-c3cc(=O)oc4cc(OC)c(OC)c(OC)c34)cc2)cc1", "activity change, negative = inhibition": "inactive: -3.83%"},
      {"smiles": "CC(C)NC(=S)N/N=C/c1ccc2c(c1)OCCO2", "Potency": "inconclusive: 14.6 µM [activator, partial curve]"},
      {"smiles": "O=C(CN1C(=O)NC2(CCCc3ccccc32)C1=O)NC1CCCCC1", "note": "(centres undefined)", "activity change, negative = inhibition": "inactive: 20.2%"},
      {"smiles": "Cc1nc(SCc2ccccc2)c2oc3ccccc3c2n1", "Potency": "inconclusive: 3.66 µM [inhibitor, single point]"},
      {"smiles": "Cc1ccc(NC(=O)COc2ccc(Br)cc2CO)cc1", "Potency": "inconclusive: 20.6 µM [activator, partial curve, poor fit]"},
      {"smiles": "CC(C)C(=O)Nc1ccc(Oc2ccc3c(c2)C(=O)NC3=O)cc1", "activity change, negative = inhibition": "inactive: -6.81%"},
      {"smiles": "O=C1CSc2ccc(C(=O)NCCc3ccc(Cl)cc3Cl)cc2N1", "Potency": "active: 25.9 µM"},
      {"smiles": "O=C(Cn1cnc2cc([N+](=O)[O-])ccc2c1=O)Nc1ccc(Br)cc1", "Potency": "inconclusive: 13 µM [inhibitor, partial curve, poor fit]"},
      {"smiles": "CC(=O)c1c(NCc2ccccc2)nc(=O)n(-c2ccccc2)c1C", "Potency": "inconclusive: 23.1 µM [activator, single point]"},
      {"smiles": "CCN1C(=O)/C(=C\\C=C2/C=CC=CN2CC)SC1=S", "Potency": "inconclusive: 4.11 µM [activator, full curve]"},
      {"smiles": "Cn1cc(C(=O)NCC2COc3ccccc3O2)c(=O)c2cc(S(=O)(=O)N3CCCCC3)ccc21", "note": "(centres undefined)", "Potency": "active: 18.4 µM"},
      {"smiles": "Cc1ccc(-c2noc(CNCCCN(C)C)n2)cc1", "Potency": "inconclusive: 20.6 µM [activator, single point]"},
      {"smiles": "COc1ccc(NC(=O)Nc2ccc(Br)cn2)cc1", "Potency": "inconclusive: 5.8 µM [activator, partial curve]"},
      {"smiles": "CCOC(=O)Cn1cc(-c2ccccc2)nn1", "activity change, negative = inhibition": "inactive: 6.89%"},
      {"smiles": "O=c1c2sc3ccccc3c2[nH]c(=S)n1CCN1CCOCC1", "Potency": "inconclusive: 13 µM [activator, partial curve, poor fit]"},
      {"smiles": "C/C(=N/NC(=O)CNC(=O)Cc1ccccc1)c1ccco1", "activity change, negative = inhibition": "inactive: 6.12%"},
      {"smiles": "O=C1N/C(=C/c2cccn2-c2ccc(F)cc2)C(=O)N1Cc1ccccc1", "Potency": "inconclusive: 25.9 µM [activator, single point]"},
      {"smiles": "CN(C)c1ccc(NC(=O)CSc2nc3ccccc3c(=O)n2C2CCCCC2)cc1", "activity change, negative = inhibition": "inactive: -25.5%"},
      {"smiles": "CC1=NN2C(=N)/C(=C\\c3cc(C)n(Cc4ccccc4)c3C)C(=O)N=C2S1", "Potency": "inconclusive: 3.66 µM [inhibitor, partial curve, poor fit]"},
      {"smiles": "COC(=O)c1sc(NC(=O)c2ccc([N+](=O)[O-])o2)c(C#N)c1C", "Potency": "active: 4.61 µM"},
      {"smiles": "CCCCCC(=O)Nc1ccc(N2CCN(CC)CC2)c(Cl)c1", "Potency": "inconclusive: 18.4 µM [activator, partial curve]"},
      {"smiles": "COc1ccc(N2CCN(C(=O)c3ccc(SC)cc3OC)CC2)cc1", "activity change, negative = inhibition": "inactive: -13.3%"},
      {"smiles": "COc1ccc(CC(=O)Nc2ccc3c(c2)CCC3)cc1", "Potency": "inconclusive: 16.4 µM [activator, partial curve]"},
      {"smiles": "O=C(NC1CCCC1)C(c1ccc(Cl)cc1)N1CCN(C2CCCCC2)CC1", "note": "(centres undefined)", "Potency": "inconclusive: 25.9 µM [activator, partial curve, poor fit]"},
      {"smiles": "CN(CC(=O)Nc1ccccc1C(F)(F)F)C(=O)C1CCN(C(=O)c2ccc(Cl)cc2)CC1", "activity change, negative = inhibition": "inactive: -2.81%"},
      {"smiles": "COc1ccc(CN(Cc2nc3ccccc3c(=O)[nH]2)C(=O)C(C)(C)C)cc1", "activity change, negative = inhibition": "inactive: 4.28%"},
      {"smiles": "CN(C)CCNC(C(=O)Nc1cccc(C(F)(F)F)c1)c1ccccc1", "note": "(centres undefined)", "activity change, negative = inhibition": "inactive: 1.26%"},
      {"smiles": "CCCn1c(=O)c(C(=O)NCCc2ccccc2)c(O)c2ccccc21", "activity change, negative = inhibition": "inactive: 8.96%"},
      {"smiles": "Cc1c([N+](=O)[O-])c(C(=O)N2CCCC2)nn1C", "activity change, negative = inhibition": "inactive: -4.18%"},
      {"smiles": "Cc1ccc2c(Cl)c(C(=O)Nc3cc(C)on3)sc2c1", "Potency": "inconclusive: 4.61 µM [activator, full curve]"},
      {"smiles": "CC(=O)c1ccc(NC(=S)NC2CCCC(C)C2C)cc1", "note": "(centres undefined)", "activity change, negative = inhibition": "inactive: 14.8%"},
      {"smiles": "CCOC(=O)C1=C(C)NC(=O)NC1c1ccc2c(c1)OCO2", "note": "(centres undefined)", "activity change, negative = inhibition": "inactive: 18.6%"},
      {"smiles": "Cc1[nH]nc2c1C(c1ccsc1C)C(C#N)=C(N)O2", "note": "(centres undefined)", "Potency": "inconclusive: 29.1 µM [activator, partial curve, poor fit]"},
      {"smiles": "Cc1ccc(NC(=O)COc2ccc3c(c2)CCC3)nc1", "Potency": "inconclusive: 7.08 µM [activator, partial curve, poor fit]"},
      {"smiles": "CC(=O)c1c(C)[nH]c(C(=O)NNC(=O)COc2cc(C)ccc2C(C)C)c1C", "activity change, negative = inhibition": "inactive: 5.22%"},
      {"smiles": "N#Cc1ccc(C(=O)N2CCN(S(=O)(=O)c3ccc(Br)s3)CC2)cc1", "Potency": "inconclusive: 29.1 µM [inhibitor, single point]"},
      {"smiles": "O=C1C2CC=C(Cl)CC2C(=O)N1CCc1c[nH]c2ccccc12", "note": "(centres undefined)", "Potency": "inconclusive: 23.1 µM [activator, single point]"},
      {"smiles": "CC1CCN(C(=O)CSc2ccc(-c3cccnc3)nn2)CC1", "Potency": "inconclusive: 4.61 µM [inhibitor, single point]"},
      {"smiles": "Cc1c2cn[nH]c(=O)c2c(C)n1-c1ccccc1", "Potency": "inconclusive: 13 µM [activator, partial curve]"},
      {"smiles": "CC(=O)c1ccc(Sc2ccc(C(C)=O)cc2)cc1", "Potency": "inconclusive: 23.1 µM [activator, partial curve]"},
      {"smiles": "CC(C)(C)c1ccc(C(=O)NCC(=O)N2CCNC(=O)C2)cc1", "activity change, negative = inhibition": "inactive: -3.05%"},
      {"smiles": "COc1ccc(-c2cccc(NC(=O)c3ccc4c(c3)OCO4)c2)nn1", "Potency": "inconclusive: 10.3 µM [inhibitor, single point]"},
      {"smiles": "COCCNC(=S)N(CCc1c(C)[nH]c2ccc(F)cc12)Cc1cccnc1", "activity change, negative = inhibition": "inactive: -28.3%"},
      {"smiles": "CCOC(=O)COc1cccc2c(=O)n(CC(=O)NCc3ccccc3)ccc12", "Potency": "inconclusive: 0.73 µM [inhibitor, partial curve]"},
      {"smiles": "CCn1cc(CN2CCC(C(=O)Nc3ccc(Oc4cccnc4)cc3)CC2)c(C)n1", "activity change, negative = inhibition": "inactive: -2.41%"},
      {"smiles": "COCCNC(=O)C1CCN(Cc2cccc(OCc3ccccc3)c2)CC1", "activity change, negative = inhibition": "inactive: -22.4%"},
      {"smiles": "COc1cccc(C(CNC(=O)C2CCN(C(=O)Nc3ccccc3)CC2)N(C)C)c1", "note": "(centres undefined)", "Potency": "inconclusive: 23.1 µM [activator, partial curve]"},
      {"smiles": "O=C(Nc1nc(-c2ccccn2)cs1)c1ccc(Br)s1", "activity change, negative = inhibition": "inactive: -3.15%"},
      {"smiles": "COc1ccc(NC(=O)c2ccccc2N2C(=O)C3C4C=CC(C5CC45)C3C2=O)c(OC)c1", "note": "(centres undefined)", "Potency": "inconclusive: 0.651 µM [activator, full curve, poor fit]"},
      {"smiles": "Cc1ccc(NC(=O)c2ncc(Cl)c(Cl)c2Cl)cc1C", "Potency": "inconclusive: 11.6 µM [activator, partial curve]"},
      {"smiles": "COc1ccc(OCC(=O)N2CCN(S(=O)(=O)c3ccccc3[N+](=O)[O-])CC2)cc1", "Potency": "inconclusive: 9.2 µM [inhibitor, partial curve]"},
      {"smiles": "Cc1nc2ccccc2n1Cc1n[nH]c(=S)n1-c1ccc(Cl)cc1", "activity change, negative = inhibition": "inactive: -1.92%"},
      {"smiles": "O=C(N/N=C/c1coc2ccc(Cl)cc2c1=O)c1ccncc1", "Potency": "active: 16.4 µM"},
      {"smiles": "O=C(CNC(=O)C12CC3CC(CC(C3)C1)C2)N/N=C\\c1ccccn1", "activity change, negative = inhibition": "inactive: 0.543%"},
      {"smiles": "CCc1ccc(C(=O)OCC(=O)NC2CCCC2)cc1", "Potency": "inconclusive: 18.3 µM [inhibitor, single point]"},
      {"smiles": "O=C(c1ccco1)N1CCN(c2nc(C(F)(F)F)nc3c2nnn3Cc2ccccc2)CC1", "Potency": "inconclusive: 29.1 µM [inhibitor, single point]"},
      {"smiles": "CC(=O)Nc1ccc(C(=O)NCC2CCCCC2)cc1", "Potency": "inconclusive: 18.3 µM [activator, partial curve]"},
      {"smiles": "Cc1ccc(S(=O)(=O)NCC(=O)N2CCc3ccccc3C2)cc1", "activity change, negative = inhibition": "inactive: 2.26%"},
      {"smiles": "O=C(NCC(c1ccco1)N1CCc2ccccc21)C(=O)Nc1ccc(F)cc1F", "note": "(centres undefined)", "Potency": "inconclusive: 1.83 µM [activator, partial curve, poor fit]"},
      {"smiles": "COc1ccc(S(=O)(=O)N2CCC(O)(c3ccc(Cl)cc3)CC2)cc1OC", "Potency": "inconclusive: 18.3 µM [inhibitor, single point]"},
      {"smiles": "Cc1ccc(/C=C/C(=O)OCC(=O)NCc2cccs2)o1", "activity change, negative = inhibition": "inactive: 15.5%"},
      {"smiles": "COc1ccc(CCNC(=O)[C@H](C)N2C(=O)N3CCc4c([nH]c5ccccc45)[C@@]3(C)C2=O)cc1OC", "Potency": "inconclusive: 4.61 µM [inhibitor, single point]"},
      {"smiles": "O=C(CNS(=O)(=O)c1ccc(Br)s1)Nc1ccc2c(c1)OCCO2", "Potency": "inconclusive: 29.1 µM [activator, single point]"},
      {"smiles": "COCCNC(=O)c1cc2c(s1)-c1ccc(Cl)cc1SC2", "Potency": "inconclusive: 10.3 µM [activator, partial curve]"},
      {"smiles": "COc1cccc(C(=O)Nc2ccc(C(=O)c3ccncc3)cc2)c1", "Potency": "inconclusive: 20.6 µM [inhibitor, single point]"}
    ]}
  ]
}
